This passage reports binding signal results from article PMC7819943, “Rice protein-binding microarrays: a tool to detect cis-acting elements near promoter regions in rice”.

Chains of the proteins cited; added tags and fusions are not shown.
UniProt Q0JBA9, entry or part of it: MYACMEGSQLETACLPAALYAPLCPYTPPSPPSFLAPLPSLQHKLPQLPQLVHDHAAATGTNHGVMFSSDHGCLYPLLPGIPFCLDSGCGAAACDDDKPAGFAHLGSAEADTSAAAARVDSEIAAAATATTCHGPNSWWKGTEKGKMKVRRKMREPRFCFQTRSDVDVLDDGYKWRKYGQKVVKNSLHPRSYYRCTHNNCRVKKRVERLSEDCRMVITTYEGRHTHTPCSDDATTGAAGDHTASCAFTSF

The list shows a part of the results.

In the test the target is OsWRKY34 (Oryza sativa, UniProt Q0JBA9 1-250). Briefly: protein-binding microarray (RPBM); PBS, 2% BSA, 51.3 ng/ul salmon testes DNA, 50 uM zinc acetate, 200 nM TF, 25 C, 1 h; high values mean tight binding. The conditions noted are these: protein: recombinant; tags: N-terminal polyhistidine and DsRed monomer fusion (pET32a); label: CyDye5-dUTP incorporated in the synthesized complementary strand; 3' TTTTT single-stranded linker to array surface; dsDNA, one strand shown. In a few lines: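 In PBS with 2% BSA, salmon testes DNA and 50 µM zinc acetate, 200 nM protein was incubated on a custom Agilent array at 25 °C for 1 h and then washed off. The array had been made double-stranded by primer extension with Cy5-dUTP and blocked with 2% BSA. The proteins were transcription factors fused N-terminally to polyhistidine and DsRed, expressed in E. coli BL21-CodonPlus and purified on Ni–NTA. The binding signal is per-feature fluorescence intensity (arbitrary units) from an Axon 4000B scanner.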
In the case of “TTTCCAATGTTTCTCCTTTGTCCCAAAGGAGCCCTCACAACGGAGTCACCTAGTGCAG”, the binding signal was 8640 fluorescence intensity (a.u.). As for “CCCCGCCGTCCGCGCCGACCGCGACCTGCGCTACGCCGCCCGGAGTCACCTAGTGCAG”, the binding signal was 8450 fluorescence intensity (a.u.). For “CGTCCATGAGCTGTTAGCTGACATCCTTTTGCTGTATTGACGGAGTCACCTAGTGCAG” the value was 8920 fluorescence intensity (a.u.); for “AGGCGCCTCTGCCCAAACAGTTTGACCGATTTTTGTCAACCGGAGTCACCTAGTGCAG”, 10500 fluorescence intensity (a.u.); for “GATTTTCTCATCTTACCTTAGGCTGAGTTCTTATCTCTAGCGGAGTCACCTAGTGCAG”, 8370 fluorescence intensity (a.u.).

For the sequence “GTGCTTGTGTGGCGCGTGTGCTTGTCACAGACTCTGCTCCCGGAGTCACCTAGTGCAG”, the binding signal is 8660 fluorescence intensity (a.u.). For “ACCTCTCCCATCGCCGTACGTCCCCAGGATCCCTTCCCATCGGAGTCACCTAGTGCAG”, the binding signal is 8230 fluorescence intensity (a.u.).

Regarding “GCTTCAGGGCTTTGCCATCTTGTCTGTCAGTGTTCACTAACGGAGTCACCTAGTGCAG”, the binding signal is 9480 fluorescence intensity (a.u.). For “ATCGACTCTCTCATGGGGTATATATAGTAGTACATAGGGGCGGAGTCACCTAGTGCAG”, the binding signal is 9120 fluorescence intensity (a.u.).

In the case of “CGACTACTCGGCCGGCCACCTGCGCCGTCTCTACCCCGAGCGGAGTCACCTAGTGCAG”, the binding signal was 9320 fluorescence intensity (a.u.). Under “AGTTTCCTAATCTATTATATGATAGTACTCGGTCGGAGCTCGGAGTCACCTAGTGCAG” stands 8480 fluorescence intensity (a.u.). Turning to “AGCACCATCTCCATCCAATAATCCCCATGCTTGCGCACCACGGAGTCACCTAGTGCAG”, the binding signal was 10600 fluorescence intensity (a.u.).

“CCTCGCTTAGATTCGCCATTACCGCCGCTTTTGTTCCCACCGGAGTCACCTAGTGCAG”: the binding signal is 12000 fluorescence intensity (a.u.). Under “TTGCCTATTTGAAACTGCCACTCAATGTGTTTATAAATCTCGGAGTCACCTAGTGCAG” stands 9090 fluorescence intensity (a.u.); under “GTACCGTTTGGATGTGTACAGAGAGGGGTGTGGGGCTCAACGGAGTCACCTAGTGCAG”, 10300 fluorescence intensity (a.u.); under “CTACAGCCTCACACCGTCTCTCCTGCACCAGTTCCACGGACGGAGTCACCTAGTGCAG”, 9510 fluorescence intensity (a.u.).

Take “TTGTCCTATTGTAGCTGCTTTTCAATTGACGTCATAGAATCGGAGTCACCTAGTGCAG”: the binding signal was 8650 fluorescence intensity (a.u.). Under “CATCTCATTTTGTTCTTTTATTCTCATCACGTTTAATTATCGGAGTCACCTAGTGCAG” stands 9940 fluorescence intensity (a.u.); under “TTCTCGCTGCTTCTACTACTCTTCCCGTGCTACGGTAGCGCGGAGTCACCTAGTGCAG”, 8920 fluorescence intensity (a.u.); under “AGAAATTTAATATTGCATCTTTCTATCTCTCTAGCTATCCCGGAGTCACCTAGTGCAG”, 8270 fluorescence intensity (a.u.). Take “GCTTTTGGACAGGGTTGACTTTACTTCTTTGAGCCTCTCACGGAGTCACCTAGTGCAG”: the binding signal was 14800 fluorescence intensity (a.u.). Consider “TAAGTGGACCTATAGGTGCACACGTGGGGAGAGGGGCGTGCGGAGTCACCTAGTGCAG”, for which the binding signal was 9170 fluorescence intensity (a.u.). As to “GCAGCACTCAGCTCACCATTCTTCTGAGAGGTTTGTATAACGGAGTCACCTAGTGCAG”, the binding signal is 8430 fluorescence intensity (a.u.). For “ACTATCCAACCAAATCCGTTGCTTTCCATGACCACACACGCGGAGTCACCTAGTGCAG”, the binding signal is 8540 fluorescence intensity (a.u.). Under “AGTGATCCGTTCATTCTTCGCTGCGCCTGCGATTTGTCCGCGGAGTCACCTAGTGCAG” stands 8860 fluorescence intensity (a.u.); under “CTTGGGAATATGTCGCTCGGCCGACCTCTCGTATTATTGACGGAGTCACCTAGTGCAG”, 8740 fluorescence intensity (a.u.); under “CCGCCGCCATCCACACGCCGTGCCGCAGATCCTATCTCCCCGGAGTCACCTAGTGCAG”, 8930 fluorescence intensity (a.u.).

With “CGCCGTGACAATTCCCGCTGTATCATCCGTTGTTCGGATCCGGAGTCACCTAGTGCAG”, the binding signal is 12200 fluorescence intensity (a.u.).

Regarding “AACACACCCTTAGTACTGGATCCAAACATCACATTACTCCCGGAGTCACCTAGTGCAG”, the binding signal was 8450 fluorescence intensity (a.u.). Turning to “ATATTTTGCTTACACTGTTTGACTATTCGTCTTATAATTTCGGAGTCACCTAGTGCAG”, the binding signal is 14000 fluorescence intensity (a.u.). For the sequence “CCAGTTGGCTCTATGCCATGCCGCTTTCAGTCTCTCTGATCGGAGTCACCTAGTGCAG”, the binding signal is 9520 fluorescence intensity (a.u.). Under “ACATTTTTGCCGATCAAGCTATCATTGGGCACATTAATTCCGGAGTCACCTAGTGCAG” stands 10400 fluorescence intensity (a.u.). Under “GACAATTTCTTTTTCCGATGGGATTTTAGTTTTTTGTTTTCGGAGTCACCTAGTGCAG” stands 9700 fluorescence intensity (a.u.); under “TCCATCCAACCATTGTAATTACTACTCCCTCCGTATTTTACGGAGTCACCTAGTGCAG”, 8880 fluorescence intensity (a.u.); under “GCCCTTGCCGCCACGCCACCCGCCCGCCGCTACCGCCGCTCGGAGTCACCTAGTGCAG”, 12600 fluorescence intensity (a.u.).

Turning to “ATATTGTTCATTCTGCCCAATTACTTCTACTCTTATTCATCGGAGTCACCTAGTGCAG”, the binding signal is 11300 fluorescence intensity (a.u.). Under “AGTCGTCACATCACTTACCGCACACATGCTCTTTCGGAATCGGAGTCACCTAGTGCAG” stands 11800 fluorescence intensity (a.u.); under “TATTCAGTCCTATGTTCTCGTGGTTCGTCCATGCAAACCACGGAGTCACCTAGTGCAG”, 8460 fluorescence intensity (a.u.); under “GGTTTATTGGTTCGCGAATCCGCGGCGGGGCGCGGGTGGTCGGAGTCACCTAGTGCAG”, 8360 fluorescence intensity (a.u.). Under “CGCCTATTCCGTTCTTCGTTATTTTCCTTCACTACTTACTCGGAGTCACCTAGTGCAG” stands 10300 fluorescence intensity (a.u.). For “CCGTCTCTTTGTCTCCTCCGCTCCTTGCGCCGCCGCCAAGCGGAGTCACCTAGTGCAG” the value was 10800 fluorescence intensity (a.u.); for “AGTATTTCTTGCTTTACCACTGTGCAGGTAGCTCGCCATGCGGAGTCACCTAGTGCAG”, 11100 fluorescence intensity (a.u.).
